According to US20250375473A1, “Pharmaceutical composition for treating cancer comprising an ionic compound having metal ion binding thereto” (METAFINES.CO.LTD., priority 2018, published 2025):

Assay: Clinical Phase 1 trials
Format: in vivo, human

With `O=C([O-])C(Cl)Cl.O=C1O[C@H]([C@@H](O)CO)C([O-])=C1O.[Ca+2]` [Example 1, calcium salts of dichloroacetic acid and ascorbic acid] the “maximum dose confirmed in clinical Phase 1 trials, intravenous” value (intravenous administration) was 32.43 mg/kg and the “maximum dose confirmed in clinical Phase 1 trials, oral” value (oral administration) was 64.86 mg/kg.
